No constants are given. Whether binding was seen depends on the method and setting. Binding seen in cells or lysates may run through a third protein. Sequences can lack the tags named with a protein.
Target: T1, HA-Alba1 (Trypanosoma brucei) (UniProt Q385X1)
T1 sequence: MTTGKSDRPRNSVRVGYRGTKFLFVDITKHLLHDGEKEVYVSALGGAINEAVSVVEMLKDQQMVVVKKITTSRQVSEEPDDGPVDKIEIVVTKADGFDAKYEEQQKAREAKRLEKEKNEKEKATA
Test: co-IP; HA-tagged bait induced with tetracycline in procyclic T. brucei; extract in IP buffer (20 mM Tris-HCl pH 7.6, 150 mM NaCl, 1 mM EDTA, 1 mM DTT, 0.5% NP-40) with RNase inhibitor; anti-HA affinity matrix, 2 h, 4°C; immunoblot with Alba-specific or anti-P0 antibodies; cycloheximide or puromycin before the CoIP did not affect Alba3/eIF4E4

B1: Alba2 (protein, UniProt Q385X2 1-117)
chain: MSEKGGDDSRSSQVRVSVKRRNFSYVDSIKVRLSGGKPEVTISALGKAISDAVAVAEILKNQGLIDVKKITTSRGAAESDGDAVNDKIEILITKSKDFDTIYAEQQKRKLENADKKE
binding: no binding
